Values of other authors in patent publication US5565437A, “2',3'-dideoxy-2'-fluoro-purine nucleosides and methods for using same” (priority 1992, dated 1996).
At least one structure is not confirmed: it was looked up by name or label, or the drawing left a doubt.

How the values were obtained:
HIV = conditions: background statement; cited from earlier work
[1] = test system: human immunodeficiency virus (HIV); conditions: background statement; cited from earlier work

O=C(O)P(=O)(O)O [phosphonoformate]
HIV replication in the presence of compound (HIV): considerably slower

O=c1[nH]cnc2c1ncn2[C@H]1CC[C@@H](CO)O1 [ddI, dideoxyinosine]
in vitro activity against HIV [1]: potent in vitro activity
